Assay [1] has as its target PvdJ with a C-terminal 6 × His + Flag (cHF) tag (Pseudomonas putida KT2440) (UniProt Q88F78). Put plainly: native gel or EMSA; native PAGE of the purified tagged PVD NRPS subunits; both purified.
The target is the same in assay [2]. The experiment in a line: negative-stain electron microscopy; subunits purified by one-step Flag affinity and Superose 6 Increase SEC (50 mM Hepes, 10 mM NaCl, pH 7.6), diluted to 0.025 mg/mL, uranium acetate stain, 120 keV; both purified.
The target in assay [3] is MbtH-like protein (MLP) PP3808 with a C-terminal 6 × His + Strep tag (Pseudomonas putida KT2440) (UniProt Q88GB6). Put plainly: pull-down; tandem affinity: IMAC (Ni-TED) eluate of the PP3808cHS strain lysate applied to Streptactin resin, eluted with 2.5 mM dethiobiotin; SDS-PAGE.
In assay [4] the target is PvdL with a C-terminal 6 × His + Flag (cHF) tag (Pseudomonas putida KT2440) (UniProt Q88F56). The experiment in a line: pull-down; one-step IMAC: clarified lysate of the tag knock-in strain incubated with Ni-TED resin 1 h at 4 °C in Buffer A (50 mM Hepes, 150 mM NaCl, 5% glycerol, pH 7.6), washed, eluted with 200 mM imidazole; SDS-PAGE.
In assay [5] the target is PvdJ with a C-terminal 6 × His + Flag (cHF) tag (Pseudomonas putida KT2440) (UniProt Q88F78). The description is as above.
The target in assay [6] is MbtH-like protein (MLP) PP3808 with a C-terminal 6 × His + Flag tag (Pseudomonas putida KT2440) (UniProt Q88GB6). The assay is described as above.
The target in assay [7] is PvdI with a C-terminal 6 × His + Flag (cHF) tag (Pseudomonas putida KT2440) (UniProt Q88F77). The assay is described as above.
Assay [8] deals with PvdL with a C-terminal 6 × His + Flag (cHF) tag (Pseudomonas putida KT2440) (UniProt Q88F56). Put plainly: pull-down; one-step Flag affinity: clarified lysate of the tag knock-in strain incubated with Flag-M2 resin 4 h at 4 °C in Buffer A (50 mM Hepes, 150 mM NaCl, 5% glycerol, pH 7.6), washed, eluted with 0.1 mg/mL 3 × Flag peptide; SDS-PAGE.
For assay [9], the target named is PvdJ with a C-terminal 6 × His + Flag (cHF) tag (Pseudomonas putida KT2440) (UniProt Q88F78). The assay is described as above.
For assay [10], the target named is MbtH-like protein (MLP) PP3808 with a C-terminal 6 × His + Flag tag (Pseudomonas putida KT2440) (UniProt Q88GB6). The description is as above.
In assay [11] the target is PvdI with a C-terminal 6 × His + Flag (cHF) tag (Pseudomonas putida KT2440) (UniProt Q88F77). The assay is described as above.
Assay [12] deals with PvdL with a C-terminal 6 × His + Flag (cHF) tag (Pseudomonas putida KT2440) (UniProt Q88F56). The experiment in a line: native gel or EMSA; native PAGE of the purified tagged PVD NRPS subunits; both purified.
Assay [13] shares this target. Put plainly: negative-stain electron microscopy; subunits purified by one-step Flag affinity and Superose 6 Increase SEC (50 mM Hepes, 10 mM NaCl, pH 7.6), diluted to 0.025 mg/mL, uranium acetate stain, 120 keV; both purified.
Assay [14] has as its target PvdD with a C-terminal 6 × His + Flag (cHF) tag (Pseudomonas putida KT2440) (UniProt Q88F79). Put plainly: pull-down; one-step IMAC: clarified lysate of the tag knock-in strain incubated with Ni-TED resin 1 h at 4 °C in Buffer A (50 mM Hepes, 150 mM NaCl, 5% glycerol, pH 7.6), washed, eluted with 200 mM imidazole; SDS-PAGE.
The target is the same in assay [15]. The experiment in a line: pull-down; one-step Flag affinity: clarified lysate of the tag knock-in strain incubated with Flag-M2 resin 4 h at 4 °C in Buffer A (50 mM Hepes, 150 mM NaCl, 5% glycerol, pH 7.6), washed, eluted with 0.1 mg/mL 3 × Flag peptide; SDS-PAGE.
The target is the same in assay [16]. Put plainly: native gel or EMSA; native PAGE of the purified tagged PVD NRPS subunits; both purified.
Assay [17] has the same target. Put plainly: negative-stain electron microscopy; subunits purified by one-step Flag affinity and Superose 6 Increase SEC (50 mM Hepes, 10 mM NaCl, pH 7.6), diluted to 0.025 mg/mL, uranium acetate stain, 120 keV; both purified.
The target of assay [18] is PvdI with a C-terminal 6 × His + Flag (cHF) tag (Pseudomonas putida KT2440) (UniProt Q88F77). Put plainly: native gel or EMSA; native PAGE of the purified tagged PVD NRPS subunits; both purified. Background: In EMSA bound probe runs differently from free probe, usually more slowly.
Assay [19] shares this target. Put plainly: negative-stain electron microscopy; subunits purified by one-step Flag affinity and Superose 6 Increase SEC (50 mM Hepes, 10 mM NaCl, pH 7.6), diluted to 0.025 mg/mL, uranium acetate stain, 120 keV; both purified.

By UniProt entry, the sequences of proteins in these tests, tags left out.
UniProt Q88F78: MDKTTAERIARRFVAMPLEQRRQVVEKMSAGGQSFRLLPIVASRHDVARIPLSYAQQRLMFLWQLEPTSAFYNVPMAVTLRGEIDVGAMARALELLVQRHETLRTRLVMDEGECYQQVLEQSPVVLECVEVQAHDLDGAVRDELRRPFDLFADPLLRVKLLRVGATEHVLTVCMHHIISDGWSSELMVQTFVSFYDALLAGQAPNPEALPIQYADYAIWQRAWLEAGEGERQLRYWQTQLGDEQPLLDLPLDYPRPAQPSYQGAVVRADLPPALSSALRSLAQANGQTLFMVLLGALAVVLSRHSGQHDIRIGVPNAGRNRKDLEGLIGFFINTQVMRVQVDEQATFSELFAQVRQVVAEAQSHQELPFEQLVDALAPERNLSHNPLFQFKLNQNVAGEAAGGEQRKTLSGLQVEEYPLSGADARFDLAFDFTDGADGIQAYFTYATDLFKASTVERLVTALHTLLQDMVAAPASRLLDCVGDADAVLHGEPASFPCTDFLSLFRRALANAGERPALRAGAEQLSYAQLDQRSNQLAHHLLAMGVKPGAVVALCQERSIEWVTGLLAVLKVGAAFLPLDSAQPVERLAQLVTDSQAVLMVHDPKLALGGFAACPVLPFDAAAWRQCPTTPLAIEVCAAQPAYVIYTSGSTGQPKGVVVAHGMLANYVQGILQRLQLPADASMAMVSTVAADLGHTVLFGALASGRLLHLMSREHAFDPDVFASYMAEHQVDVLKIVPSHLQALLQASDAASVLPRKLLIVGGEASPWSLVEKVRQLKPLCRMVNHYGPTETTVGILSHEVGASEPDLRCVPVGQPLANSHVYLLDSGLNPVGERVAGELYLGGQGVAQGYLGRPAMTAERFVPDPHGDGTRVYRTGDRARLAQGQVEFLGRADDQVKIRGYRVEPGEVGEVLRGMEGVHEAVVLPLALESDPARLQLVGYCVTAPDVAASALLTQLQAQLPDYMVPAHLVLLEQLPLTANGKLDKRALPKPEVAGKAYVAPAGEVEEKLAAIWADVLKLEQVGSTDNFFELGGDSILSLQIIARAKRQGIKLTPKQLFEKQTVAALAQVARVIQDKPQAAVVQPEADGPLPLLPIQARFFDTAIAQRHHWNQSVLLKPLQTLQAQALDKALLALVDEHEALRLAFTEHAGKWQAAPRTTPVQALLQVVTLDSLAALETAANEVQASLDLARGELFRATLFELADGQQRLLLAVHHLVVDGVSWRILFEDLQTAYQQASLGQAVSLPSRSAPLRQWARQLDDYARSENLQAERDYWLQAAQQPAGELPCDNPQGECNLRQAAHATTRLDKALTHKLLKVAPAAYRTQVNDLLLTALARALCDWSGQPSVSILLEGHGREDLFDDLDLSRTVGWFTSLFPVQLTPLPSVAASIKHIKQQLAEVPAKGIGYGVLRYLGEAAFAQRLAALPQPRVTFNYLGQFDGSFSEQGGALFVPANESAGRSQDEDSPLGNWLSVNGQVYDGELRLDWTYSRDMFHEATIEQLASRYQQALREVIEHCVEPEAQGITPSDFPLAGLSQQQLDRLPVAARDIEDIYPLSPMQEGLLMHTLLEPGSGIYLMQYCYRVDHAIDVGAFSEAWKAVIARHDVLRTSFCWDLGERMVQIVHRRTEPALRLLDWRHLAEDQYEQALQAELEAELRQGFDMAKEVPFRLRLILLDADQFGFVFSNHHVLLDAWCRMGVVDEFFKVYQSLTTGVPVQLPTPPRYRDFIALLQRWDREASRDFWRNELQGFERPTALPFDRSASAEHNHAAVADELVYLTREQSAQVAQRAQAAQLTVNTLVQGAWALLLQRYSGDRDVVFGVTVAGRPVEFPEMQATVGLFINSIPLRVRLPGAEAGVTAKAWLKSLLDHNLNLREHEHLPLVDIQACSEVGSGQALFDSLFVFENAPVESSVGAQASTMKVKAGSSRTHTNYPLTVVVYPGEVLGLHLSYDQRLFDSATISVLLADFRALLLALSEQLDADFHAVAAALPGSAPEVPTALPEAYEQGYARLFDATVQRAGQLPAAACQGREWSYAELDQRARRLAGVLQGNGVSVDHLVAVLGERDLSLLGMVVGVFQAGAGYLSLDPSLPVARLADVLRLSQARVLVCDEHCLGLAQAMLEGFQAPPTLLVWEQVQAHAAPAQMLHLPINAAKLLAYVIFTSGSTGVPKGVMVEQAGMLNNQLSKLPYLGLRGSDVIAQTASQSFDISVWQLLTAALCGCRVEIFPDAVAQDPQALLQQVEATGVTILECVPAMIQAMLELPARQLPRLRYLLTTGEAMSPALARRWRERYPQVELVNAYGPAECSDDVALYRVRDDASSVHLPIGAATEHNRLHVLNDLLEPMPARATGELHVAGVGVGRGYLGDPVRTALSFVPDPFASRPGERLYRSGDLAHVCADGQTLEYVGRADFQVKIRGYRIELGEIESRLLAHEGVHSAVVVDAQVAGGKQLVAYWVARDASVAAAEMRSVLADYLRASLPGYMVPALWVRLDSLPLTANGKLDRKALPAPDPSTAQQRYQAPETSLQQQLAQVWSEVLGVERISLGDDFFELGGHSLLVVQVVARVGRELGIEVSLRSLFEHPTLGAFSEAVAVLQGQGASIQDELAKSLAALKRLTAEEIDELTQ
UniProt Q88F77: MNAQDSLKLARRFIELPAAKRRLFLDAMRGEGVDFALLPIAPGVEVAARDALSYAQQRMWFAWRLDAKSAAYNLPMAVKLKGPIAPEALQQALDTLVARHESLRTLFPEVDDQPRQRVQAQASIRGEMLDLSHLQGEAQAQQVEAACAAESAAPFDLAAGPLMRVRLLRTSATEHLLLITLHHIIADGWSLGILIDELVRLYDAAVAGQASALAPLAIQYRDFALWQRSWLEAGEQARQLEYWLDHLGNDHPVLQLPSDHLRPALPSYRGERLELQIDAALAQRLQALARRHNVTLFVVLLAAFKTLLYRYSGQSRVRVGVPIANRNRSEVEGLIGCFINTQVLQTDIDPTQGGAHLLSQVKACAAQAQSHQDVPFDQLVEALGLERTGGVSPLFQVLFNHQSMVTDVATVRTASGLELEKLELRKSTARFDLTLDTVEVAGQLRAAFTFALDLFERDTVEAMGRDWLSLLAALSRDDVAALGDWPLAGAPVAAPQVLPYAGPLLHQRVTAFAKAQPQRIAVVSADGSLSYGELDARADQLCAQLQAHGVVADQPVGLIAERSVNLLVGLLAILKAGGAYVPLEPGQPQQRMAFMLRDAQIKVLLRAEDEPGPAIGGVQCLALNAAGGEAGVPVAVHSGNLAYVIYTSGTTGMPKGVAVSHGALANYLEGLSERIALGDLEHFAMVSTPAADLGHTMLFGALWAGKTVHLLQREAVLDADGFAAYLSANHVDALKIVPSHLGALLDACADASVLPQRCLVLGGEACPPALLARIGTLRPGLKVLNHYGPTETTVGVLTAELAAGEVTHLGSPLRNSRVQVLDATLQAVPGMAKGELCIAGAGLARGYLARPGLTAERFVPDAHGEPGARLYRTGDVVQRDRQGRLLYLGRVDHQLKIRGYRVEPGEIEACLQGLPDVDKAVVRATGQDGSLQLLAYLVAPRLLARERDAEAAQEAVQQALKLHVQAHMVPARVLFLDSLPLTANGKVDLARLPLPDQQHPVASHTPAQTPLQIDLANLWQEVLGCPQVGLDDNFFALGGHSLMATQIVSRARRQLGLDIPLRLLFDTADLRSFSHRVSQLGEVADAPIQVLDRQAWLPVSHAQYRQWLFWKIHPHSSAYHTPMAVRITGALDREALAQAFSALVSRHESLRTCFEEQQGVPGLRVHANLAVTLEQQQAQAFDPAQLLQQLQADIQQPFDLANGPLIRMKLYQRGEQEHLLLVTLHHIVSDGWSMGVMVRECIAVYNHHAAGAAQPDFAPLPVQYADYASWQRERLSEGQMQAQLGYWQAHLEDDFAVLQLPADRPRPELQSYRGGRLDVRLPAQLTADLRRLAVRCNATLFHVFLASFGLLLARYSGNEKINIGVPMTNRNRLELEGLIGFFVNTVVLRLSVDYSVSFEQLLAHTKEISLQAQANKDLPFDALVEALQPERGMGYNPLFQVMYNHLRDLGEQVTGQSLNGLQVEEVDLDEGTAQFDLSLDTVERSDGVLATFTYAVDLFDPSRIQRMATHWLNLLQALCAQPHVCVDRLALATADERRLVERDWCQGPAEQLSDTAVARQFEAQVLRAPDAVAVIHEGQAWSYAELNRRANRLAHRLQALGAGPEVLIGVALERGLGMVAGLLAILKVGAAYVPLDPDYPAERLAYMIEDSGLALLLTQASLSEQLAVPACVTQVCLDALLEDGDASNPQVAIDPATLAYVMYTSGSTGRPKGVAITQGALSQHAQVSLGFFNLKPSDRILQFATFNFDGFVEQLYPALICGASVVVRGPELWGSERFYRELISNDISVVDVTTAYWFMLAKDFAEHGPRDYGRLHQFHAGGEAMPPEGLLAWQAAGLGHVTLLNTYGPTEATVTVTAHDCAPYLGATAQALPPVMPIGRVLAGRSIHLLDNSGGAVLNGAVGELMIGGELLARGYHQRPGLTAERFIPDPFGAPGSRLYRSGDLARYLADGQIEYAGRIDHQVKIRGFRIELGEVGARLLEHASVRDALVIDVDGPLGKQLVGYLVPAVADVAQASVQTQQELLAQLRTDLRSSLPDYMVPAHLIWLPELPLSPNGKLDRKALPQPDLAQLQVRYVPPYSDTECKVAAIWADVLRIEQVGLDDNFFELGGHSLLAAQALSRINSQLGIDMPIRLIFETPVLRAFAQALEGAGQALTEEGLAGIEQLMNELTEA

No constants are given. Whether binding was seen depends on the method and setting. For some assays here: Binding seen in cells or lysates may run through a third protein. Some entries that bind do so weakly or less than the wild type.

The values below come from PMC11855355, “In-Situ Purification of Non-Ribosomal Peptide Synthetases Assembly Line for Structural and Biochemical Studies” (International Journal of Molecular Sciences, 2025).

In the case of “PvdJ with a C-terminal 6 × His + Flag (cHF) tag (from UniProt Q88F78 1-2628) (enzyme)”, the binding entry in assay [1] and in assay [2] was “no binding” in each case.
Regarding “PvdD, pyoverdine (PVD) NRPS subunit, untagged (from UniProt Q88F79 1-3470) (enzyme)”, the binding result is “binds” in assay [3]; “no binding” in assay [4]; “no binding” in [5]; “binds” in [6]; “no binding” in [7]; “no binding” in [8]. The binding result in [9] is “no binding”; in [10], “binds”; in [11] it was “no binding”.
With “PvdL with a C-terminal 6 × His + Flag (cHF) tag (from UniProt Q88F56 1-4317) (enzyme)”, the binding entry in [12] and in assay [13] was “no binding” each time.
With “PvdJ, pyoverdine (PVD) NRPS subunit, untagged (from UniProt Q88F78 1-2628) (enzyme)”, the binding entry was “binds” in assay [3]; “no binding” in assay [4]; “no binding” in [14]; “binds” in [6]; “no binding” in [7]; “no binding” in [8]. Besides, the binding result is recorded as “no binding” in assay [15], “binds” in assay [10] and “no binding” in [11].
For “PvdL, pyoverdine (PVD) NRPS subunit, untagged (from UniProt Q88F56 1-4317) (enzyme)”, the binding result in assay [3] is given as “binds”; in assay [14] it was “no binding”; in [5], “no binding”; in assay [6], “binds”; in assay [7], “no binding”; in [15], “no binding”. Moreover, the binding entry in assay [9] is “no binding”; in assay [10], “binds”; in assay [11], “no binding”.
Regarding “PvdI, pyoverdine (PVD) NRPS subunit, untagged (from UniProt Q88F77 1-2174) (enzyme)”, the binding result in assay [3] was “binds”; in assay [4], “no binding”; in assay [14], “no binding”; in [5], “no binding”; in [6], “binds”; in [8], “no binding”. Besides, the binding entry was “no binding” in assay [15], “no binding” in assay [9] and “binds” in [10].
For the substance “PvdD with a C-terminal 6 × His + Flag (cHF) tag (from UniProt Q88F79 1-3470) (enzyme)”, the binding entry in assay [16] and in [17] was “no binding” each time.
For the substance “PvdI with a C-terminal 6 × His + Flag (cHF) tag (from UniProt Q88F77 1-2174) (enzyme)”, the binding result in assay [18] and in assay [19] was “no binding” each time.
